Measurements reported in PMC11229326, “Structural characterization of two prototypical repressors of SorC family reveals tetrameric assemblies on DNA and mechanism of function” (Nucleic Acids Research, 2024).
For some of these results: No signal at the amounts used counts as a negative. Protein sequences can lack the tags named with them. For some of these results: Construct, isoform or probe ends are uncertain for at least one entry. For some of these results: The comparison behind a weaker result is the experiment's own reference, which may not be listed here.

Tests used:
[1] = molecular target: T1, DeoR (Bacillus subtilis) (UniProt P39140); experiment: SEC; details: about 56 uM DeoR, protein:DNA 2:1; recombinant protein; residues 2-313
T1 sequence (looked up): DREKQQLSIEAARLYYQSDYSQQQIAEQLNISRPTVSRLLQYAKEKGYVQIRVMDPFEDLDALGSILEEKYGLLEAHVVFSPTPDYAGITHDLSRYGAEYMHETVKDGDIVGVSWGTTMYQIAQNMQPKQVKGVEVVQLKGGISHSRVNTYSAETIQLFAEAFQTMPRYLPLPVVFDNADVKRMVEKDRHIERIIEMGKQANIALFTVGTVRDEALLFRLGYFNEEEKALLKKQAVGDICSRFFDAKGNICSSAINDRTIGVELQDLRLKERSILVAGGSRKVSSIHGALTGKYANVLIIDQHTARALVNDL

[2] = molecular target: T1, DeoR (Bacillus subtilis); experiment: mass photometry; details: 30 nM, no mass change on DNA addition, attributed to low affinity; recombinant protein; residues 2-313
[3] = molecular target: T2, CggR (Bacillus subtilis) (UniProt O32253); experiment: cryo-EM; details: complex disassembles, recombinant protein, residues 1-340
T2 sequence (looked up): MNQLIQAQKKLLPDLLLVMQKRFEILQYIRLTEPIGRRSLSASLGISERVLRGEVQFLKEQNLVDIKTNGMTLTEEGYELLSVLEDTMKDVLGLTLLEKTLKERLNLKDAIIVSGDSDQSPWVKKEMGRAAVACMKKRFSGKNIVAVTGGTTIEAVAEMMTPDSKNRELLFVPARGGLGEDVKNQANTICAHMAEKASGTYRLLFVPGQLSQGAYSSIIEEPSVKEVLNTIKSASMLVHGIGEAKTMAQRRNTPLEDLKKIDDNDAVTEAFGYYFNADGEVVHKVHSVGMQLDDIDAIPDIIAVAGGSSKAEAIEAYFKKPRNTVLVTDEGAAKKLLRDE

Sequence: ATTGAACAAAATTTCAAT (double strand) [OL18]
- binding result [1]: no binding

Sequence: GTGACACGTTCAAACCTTTCATTGAACAAAATTTCAATTACCAATTTACATATGTTCAAAAGTCG (double strand) [OLR65]
- binding result [2]: no binding

Sequence: TGACGGGACGTTTTTTGTCATAGCGGGACATATAATGTCCAGCAA (double strand) [CggR OLR (45 bp)]
- binding result ([3]; dihydroxyacetone phosphate): binds more weakly
- binding result ([3]; fructose-1,6-bisphosphate): binds more weakly
